The other results are listed elsewhere or left out. Only a few entries rise above the background.
Experiments:
Experiment in all cases: fluorescence intensity of antibody binding to polysaccharide-coupled beads; higher = stronger binding
[1] = target: pneumococcal polysaccharide Pn11F
[2] = target: pneumococcal polysaccharide Pn12A
[3] = target: pneumococcal polysaccharide Pn12B
[4] = target: pneumococcal polysaccharide Pn12F
[5] = target: pneumococcal polysaccharide Pn13
[6] = target: pneumococcal polysaccharide Pn14
[7] = target: pneumococcal polysaccharide Pn15A
[8] = target: pneumococcal polysaccharide Pn15B
[9] = target: pneumococcal polysaccharide Pn15C
[10] = target: pneumococcal polysaccharide Pn15F
[11] = target: pneumococcal polysaccharide Pn16A
[12] = target: pneumococcal polysaccharide Pn16F
[13] = antibody concentration 2.8593 ng/mL
[14] = antibody concentration 15.2894 ng/mL
[15] = antibody concentration 81.7561 ng/mL
[16] = antibody concentration 437.17 ng/mL
[17] = antibody concentration 2337.65 ng/mL
[18] = antibody concentration 12500 ng/mL
[19] = antibody concentration 0.1 ng/mL
[20] = antibody concentration 0.534724 ng/mL

B1: 4-127.5 (protein)
chain 1: QVQLQESGPGLVKPSETLSLTCAVSGYSISSGYGWSWIRQPPGKGLEWIGYIGGSDSSTNYNPSLKSRVTISKDTSKNQLSLKLRSVTAADTAVYYCGSRGAVAGLGGLDSWGQGLLVTVSS
chain 2: QSVLTQPPSVSGAPGQRVTISCTGSSSNIGAGYGVQWYQQLPGTAPKLLIYENNKRPSGVFDRFSGSQSGTSGSLTITGLQSEDEADYYCQSYDSSLKAVLFGGGTRLTVL
[1]; [13]
  fluorescence intensity: 15 MFI
[1]; [14]
  fluorescence intensity: 13.5 MFI
[1]; [15]
  fluorescence intensity: 16.5 MFI
[1]; [16]
  fluorescence intensity: 15 MFI
[1]; [17]
  fluorescence intensity: 17.5 MFI
[1]; [18]
  fluorescence intensity: 29 MFI
[2]; [19]
  fluorescence intensity: 16 MFI
[2]; [20]
  fluorescence intensity: 16.5 MFI
[2]; [13]
  fluorescence intensity: 15.5 MFI
[2]; [14]
  fluorescence intensity: 15 MFI
[2]; [15]
  fluorescence intensity: 15 MFI
[2]; [16]
  fluorescence intensity: 17.8 MFI
[2]; [17]
  fluorescence intensity: 21.5 MFI
[2]; [18]
  fluorescence intensity: 45.5 MFI
[3]; [19]
  fluorescence intensity: 16.8 MFI
[3]; [20]
  fluorescence intensity: 16.5 MFI
[3]; [13]
  fluorescence intensity: 16 MFI
[3]; [14]
  fluorescence intensity: 16.5 MFI
[3]; [15]
  fluorescence intensity: 15.5 MFI
[3]; [16]
  fluorescence intensity: 17.5 MFI
[3]; [17]
  fluorescence intensity: 21 MFI
[3]; [18]
  fluorescence intensity: 50.5 MFI
[4]; [19]
  fluorescence intensity: 17.5 MFI
[4]; [20]
  fluorescence intensity: 18.8 MFI
[4]; [13]
  fluorescence intensity: 19.5 MFI
[4]; [14]
  fluorescence intensity: 19.5 MFI
[4]; [15]
  fluorescence intensity: 18.5 MFI
[4]; [16]
  fluorescence intensity: 19.5 MFI
[4]; [17]
  fluorescence intensity: 23.5 MFI
[4]; [18]
  fluorescence intensity: 41.2 MFI
[5]; [19]
  fluorescence intensity: 19.5 MFI
[5]; [20]
  fluorescence intensity: 19.8 MFI
[5]; [13]
  fluorescence intensity: 19.5 MFI
[5]; [14]
  fluorescence intensity: 18.5 MFI
[5]; [15]
  fluorescence intensity: 19.5 MFI
[5]; [16]
  fluorescence intensity: 21 MFI
[5]; [17]
  fluorescence intensity: 23 MFI
[5]; [18]
  fluorescence intensity: 45 MFI
[6]; [19]
  fluorescence intensity: 17 MFI
[6]; [20]
  fluorescence intensity: 15.5 MFI
[6]; [13]
  fluorescence intensity: 15.5 MFI
[6]; [14]
  fluorescence intensity: 16 MFI
[6]; [15]
  fluorescence intensity: 16.2 MFI
[6]; [16]
  fluorescence intensity: 16 MFI
[6]; [17]
  fluorescence intensity: 24 MFI
[6]; [18]
  fluorescence intensity: 182 MFI
[7]; [19]
  fluorescence intensity: 13 MFI
[7]; [20]
  fluorescence intensity: 13.5 MFI
[7]; [13]
  fluorescence intensity: 14.5 MFI
[7]; [14]
  fluorescence intensity: 13.5 MFI
[7]; [15]
  fluorescence intensity: 13.5 MFI
[7]; [16]
  fluorescence intensity: 15 MFI
[7]; [17]
  fluorescence intensity: 14.8 MFI
[7]; [18]
  fluorescence intensity: 20.8 MFI
[8]; [19]
  fluorescence intensity: 19.5 MFI
[8]; [20]
  fluorescence intensity: 18 MFI
[8]; [13]
  fluorescence intensity: 18 MFI
[8]; [14]
  fluorescence intensity: 19.8 MFI
[8]; [15]
  fluorescence intensity: 20.5 MFI
[8]; [16]
  fluorescence intensity: 20.5 MFI
[8]; [17]
  fluorescence intensity: 22.5 MFI
[8]; [18]
  fluorescence intensity: 26.5 MFI
[9]; [19]
  fluorescence intensity: 17.5 MFI
[9]; [20]
  fluorescence intensity: 18 MFI
[9]; [13]
  fluorescence intensity: 19 MFI
[9]; [14]
  fluorescence intensity: 17.5 MFI
[9]; [15]
  fluorescence intensity: 20 MFI
[9]; [16]
  fluorescence intensity: 16.2 MFI
[9]; [17]
  fluorescence intensity: 25 MFI
[9]; [18]
  fluorescence intensity: 32.5 MFI
[10]; [19]
  fluorescence intensity: 18.5 MFI
[10]; [20]
  fluorescence intensity: 17.5 MFI
[10]; [13]
  fluorescence intensity: 17.5 MFI
[10]; [14]
  fluorescence intensity: 17.5 MFI
[10]; [15]
  fluorescence intensity: 19 MFI
[10]; [16]
  fluorescence intensity: 18 MFI
[10]; [17]
  fluorescence intensity: 21 MFI
[10]; [18]
  fluorescence intensity: 37.5 MFI
[11]; [19]
  fluorescence intensity: 16 MFI
[11]; [20]
  fluorescence intensity: 15.8 MFI
[11]; [13]
  fluorescence intensity: 15 MFI
[11]; [14]
  fluorescence intensity: 14.2 MFI
[11]; [15]
  fluorescence intensity: 14 MFI
[11]; [16]
  fluorescence intensity: 15.8 MFI
[11]; [17]
  fluorescence intensity: 18 MFI
[11]; [18]
  fluorescence intensity: 31.5 MFI
[12]; [19]
  fluorescence intensity: 25 MFI
[12]; [20]
  fluorescence intensity: 24.5 MFI
[12]; [13]
  fluorescence intensity: 24 MFI
[12]; [14]
  fluorescence intensity: 24.2 MFI
